Assay results reported in US20230096789A1, “PHARMACEUTICAL COMPOSITION FOR INHIBITING INFLAMMATORY RESPONSE COMPRISING HYDROXYUREA” (priority 2020, published 2023).
At least one compound was matched to its structure with a doubt left.

What was measured:
Experiment in all cases: In vitro antiviral effect, MTT cell viability in infected MDCK cells
Conditions in all cases: 0.001 pfu/cell, 72 hours, hydroxyurea up to 1,561 μg/ml
H3N2 HongKong = format: cell-based, influenza A virus
Lee = format: cell-based, influenza B virus
H1N1 PR8 = format: cell-based, influenza A virus

For `CCC(CC)O[C@@H]1C=C(C(=O)O)C[C@H](N)[C@H]1NC(C)=O` [Tamiflu (OSV-C), oseltamivir carboxylate], the antiviral effect (H3N2 HongKong) was “clearly showed a specific antiviral effect”, the antiviral effect (Lee) was “clearly showed a specific antiviral effect” and the antiviral effect (H1N1 PR8) was “clearly showed a specific antiviral effect”.
